Test results reported in publication PMC5738357.
Results are given in words; binding and its absence hold for the method and conditions named. Binding seen in cells or lysates may run through a third protein. Here binding means that the protein was enriched with, or labelled near, the bait; the list need not be complete.

Amino acid sequences for entries named in this document (tags omitted).
UniProt P25586: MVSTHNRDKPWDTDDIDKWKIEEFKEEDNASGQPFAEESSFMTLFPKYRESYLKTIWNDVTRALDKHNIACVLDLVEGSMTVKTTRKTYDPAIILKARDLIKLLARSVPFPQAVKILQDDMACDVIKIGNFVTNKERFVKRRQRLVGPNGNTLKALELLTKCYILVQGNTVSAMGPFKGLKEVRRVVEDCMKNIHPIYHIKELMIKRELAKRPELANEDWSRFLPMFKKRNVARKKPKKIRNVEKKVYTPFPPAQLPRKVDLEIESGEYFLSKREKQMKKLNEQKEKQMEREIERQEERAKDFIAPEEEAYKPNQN
UniProt P41819: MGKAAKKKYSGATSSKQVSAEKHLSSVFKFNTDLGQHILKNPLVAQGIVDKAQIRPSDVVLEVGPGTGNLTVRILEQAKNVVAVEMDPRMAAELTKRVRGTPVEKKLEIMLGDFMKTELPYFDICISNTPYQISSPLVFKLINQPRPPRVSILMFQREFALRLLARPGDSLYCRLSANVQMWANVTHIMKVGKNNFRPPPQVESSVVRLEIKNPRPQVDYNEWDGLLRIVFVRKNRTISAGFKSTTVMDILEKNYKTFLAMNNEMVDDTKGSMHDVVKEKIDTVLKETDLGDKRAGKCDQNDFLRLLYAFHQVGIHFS

T1: scEnp1-FTpA (S. cerevisiae) (UniProt P38333)
T1 sequence: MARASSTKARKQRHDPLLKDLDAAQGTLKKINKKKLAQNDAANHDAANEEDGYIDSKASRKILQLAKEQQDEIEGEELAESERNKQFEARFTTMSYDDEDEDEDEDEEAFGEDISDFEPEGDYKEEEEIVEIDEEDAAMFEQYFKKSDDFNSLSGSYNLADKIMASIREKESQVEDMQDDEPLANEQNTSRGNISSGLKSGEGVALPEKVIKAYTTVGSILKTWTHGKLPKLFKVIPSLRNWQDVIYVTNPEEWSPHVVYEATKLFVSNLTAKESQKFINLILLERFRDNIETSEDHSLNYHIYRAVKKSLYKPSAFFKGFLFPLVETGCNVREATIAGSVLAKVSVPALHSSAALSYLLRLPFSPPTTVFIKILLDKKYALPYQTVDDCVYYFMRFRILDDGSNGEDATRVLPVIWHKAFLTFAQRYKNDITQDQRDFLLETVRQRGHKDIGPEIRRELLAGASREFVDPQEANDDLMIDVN

B1: Nop9 (protein, UniProt P47077 1-666)
chain: MGKTKTRGRRHQDKQRKDEFEPSSNSAKEHIQQEESTYNDEAEIKETQPQMFFGVLDREELEYFKQAESTLQLDAFEAPEEKFQFVTSIIEEAKGKELKLVTSQITSKLMERVILECDETQLKDIFQSFNGVFFGLSCHKYASHVLETLFVRSAALVERELLTPSFDNNEKEGPYVTMENMFLFMLNELKPHLKTMMNHQYASHVLRLLILILSSKTLPNSTKANSTLRSKKSKIARKMIDIKDNDDFNKVYQTPESFKSELRDIITTLYKGFTNGAESRSDISQSTITKFREYSVDKVASPVIQLIIQVEGIFDRDRSFWRLVFNTADEKDPKEESFLEYLLSDPVGSHFLENVIGSARLKYVERLYRLYMKDRIVKLAKRDTTGAFVVRALLEHLKEKDVKQILDAVVPELSMLLNSNMDFGTAIINASNKQGGYLRDDVIAQLIQKYYPEKSDAKNILESCLLLSASTLGNTRDDWPTAEERRRSVFLEQLIDYDDKFLNITIDSMLALPEERLIQMCYHGVFSHVVEHVLQTTRVDIIKRKMLLNILSKESVNLACNVYGSHIMDKLWEFTAKLTLYKERIARALVLETEKVKNSIYGRQVWKNWKLELYVRKMWDWKKLIKEQEFEIFPNSKPLQPKPEKHSRERNNSKEGSAFKKQKHYR
B2: Utp14 (endogenous, yeast) (protein, UniProt Q04500 1-899)
chain: MAKKKSKSRSKSSRRVLDALQLAEREINGEFDNSSDNDKRHDARRNGTVVNLLKRSKGDTNSDEDDIDSESFEDEELNSDEALGSDDDYDILNSKFSQTIRDKKENANYQEEEDEGGYTSIDEEDLMPLSQVWDMDEKTAQSNGNDDEDASPQLKLQDTDISSESSSSEESESESEDDEEEEDPFDEISEDEEDIELNTITSKLIDETKSKAPKRLDTYGSGEANEYVLPSANAASGASGKLSLTDMMNVIDDRQVIENANLLKGKSSTYEVPLPQRIQQRHDRKAAYEISRQEVSKWNDIVQQNRRADHLIFPLNKPTEHNHASAFTRTQDVPQTELQEKVDQVLQESNLANPEKDSKFEELSTAKMTPEEMRKRTTEMRLMRELMFREERKARRLKKIKSKTYRKIKKKELMKNRELAAVSSDEDNEDHDIARAKERMTLKHKTNSKWAKDMIKHGMTNDAETREEMEEMLRQGERLKAKMLDRNSDDEEDGRVQTLSDVENEEKENIDSEALKSKLGKTGVMNMAFMKNGEAREREANKETLRQLRAVENGDDIKLFESDEEETNGENIQINKGRRIYTPGSLESNKDMNELNDHTRKENKVDESRSLENRLRAKNSGQSKNARTNAEGAIIVEEESDGEPLQDGQNNQQDEEAKDVNPWLANESDEEHTVKKQSSKVNVIDKDSSKNVKAMNKMEKAELKQKKKKKGKSNDDEDLLLTADDSTRLKIVDPYGGSDDEQGDNVFMFKQQDVIAEAFAGDDVVAEFQEEKKRVIDDEDDKEVDTTLPGWGEWAGAGSKPKNKKRKFIKKVKGVVNKDKRRDKNLQNVIINEKVNKKNLKYQSSAVPFPFENREQYERSLRMPIGQEWTSRASHQELIKPRIMTKPGQVIDPLKAPFK
B3: Nob1 (endogenous, yeast) (protein, UniProt Q08444 1-459)
chain: MTENQTAHVRALILDATPLITQSYTHYQNYAQSFYTTPTVFQEIKDAQARKNLEIWQSLGTLKLVHPSENSIAKVSTFAKLTGDYSVLSANDLHILALTYELEIKLNNGDWRLRKKPGDALDASKADVGTDGKQKLTEDNKKEEDSESVPKKKNKRRGGKKQKAKREAREAREAENANLELESKAEEHVEEAGSKEQICNDENIKESSDLNEVFEDADDDGDWITPENLTEAIIKDSGEDTTGSLGVEASEEDRHVALNRPENQVALATGDFAVQNVALQMNLNLMNFMSGLKIKRIRNYMLRCHACFKIFPLPKDGKPKHFCASCGGQGTLLRCAVSVDSRTGNVTPHLKSNFQWNNRGNRYSVASPLSKNSQKRYGKKGHVHSKPQENVILREDQKEYEKVIKQEEWTRRHNEKILNNWIGGGSADNYISPFAITGLKQHNVRIGKGRYVNSSKRRS
B4: Rrp12 (protein, UniProt Q12754 1-1228)
chain: MDQDKVAFLLELEDKLAKIRSQVNSKLENQKHIAIILTAVEENIAGQATNDVSKNIVNYIISFMSLLDQAVDPSTHEIKDIQLASSSTYLLDLIFHYSPKVLLRSKFSEILTKIAPCITAEKANAPLIRAAIGCLESLLIAQDAQAWNNTYDLNVTPKRGLQGILELSLDVRPKVRKRALDAVHAVLLNPPVAPTAEHVAAVFVADFCDKQLAGILNDLSNLSNKQLKAQKTKEDINASVMRSLRLITSVVSTGQWPSSQIEPLCDVLLGVTKSSEQYLVSASFECFESMFKTMAETTISSGLAENKYLRVLDTIFALKPSNVDTLLTKSWIAVVIKGMSTYATHQPLKALRKIPGVFHIMCTYLASETPEVYQAASQCLISILSESVKDDLLLYTPSVDEKVFKNVDEIISQIAKTFIDFLSIRYSHCSREILKILVAAFNKFRYRSNPHFLKSLKIVDTWRVNEEQFMDLRNEIELVIGASISAMGPEMILAEAPLNLDNPSSERPGRAWLLPLIRDYTKNANLATFQNELAPYIKSFQSKFDKVPEESIQLRVFQTIVDQIWSTLPRFCELPMDLRESFTDEFASELSSLLYSEVELRTTICHALKVLAESNVSYAEESSSHNVLLLQRFPISEAQKNIEYLSTKSTNLLAVLFNVYTQTTPNARSYILETIDQYLKITSKEDLEKTFNNVCGLLKNSMNEESSGNVNKEKKKPQLTATLLDLIICMITYLPVSSYSALFSMFSLTVNSADALIQKRAYRIITKLSELKSGSTAVAQFISDIENVMVDSASSVQTSAKAARLTAIKTIVELLPLDHLDFIVRTVAEVILSTKDVNEKSRETAFDTLICMGRKMNEPNGIIKLFQIPGYDPTTPDQSSSISEFFKIISAGLIGESQHMVSSSITGYACLVFEFKNELDSGILMDIYDTIELYLTSNSREIVKSAIGFTKVCVLGLPEELMRPKVPELLLKLLRWSHEHTGHFKAKVKHIIERLIRRFGYDYIEANFPEEDRRLLTNIRKMRNRNKRKDEEVTTGVSDVAATKGSRFMSAFDEAVYGSDEENDNGSDQEENVAGGKMKNGAKQFIVESGDNPLDLLDSQTLAHISSTRPKKFNKNQNRARFNDDAFNFDSEGKLVVKGQPKPSTNVDDPLSAVTSGINAYLEAVKSGPVRGQRNKLKFRKNGKDSDEFGDDDDGEKDSRLMRGRVNQGNKIGKHNKKGPKFKSRKKL
B5: Tsr1 (protein, UniProt Q07381 1-788)
chain: MAGHSHRSSLKNGHKSYKSKHASKGALKRLYKGKVEKEPVGTGKPDKQVSKLQRKNKAKQLRAQRILDSIENRKLFEGKNGAAKIITIVPLVNDLDPLDILYKLLKCADDEGIMVQEVDSKRIFNVHIKKFKSNLKIIIPDMTNFLNILDCAKVADFVVFGLSGVQEVDEEFGEQIIRALELQGIASYIGVISNLSAVHEKEKFQLDVKQSLESYFKHFFPSEERVYNLEKNSDALNVLRTLCQRLPRSINWRDNRGYVVADFVDFVETSPDSGDLVIEGTVRGIGFNANRLVHIPDFGDFQLNKIEKISESSQKRKIIKEKATDSLSLELDLQTVFESNMNRDTLDEYAPEGTEDWSDYDEDFEYDGLTTARYDDHGFLPGREQTSKKAAVPKGTSDYQAKWYLDDVIDANEEEEAEQTNGKDETMMEIDDEMMVEQDNEEVAGDEEYDIEDNEGFEELSPEEEERQLREFRDMEKEDREFPDEIELEPSESAIERLKRYRGLKNLYNCDWQVDEKDPSSPAEWKRLLRIGNYKNTKNRIIKETKNEAQAIAGDRIRMFIRFPKFLLEKIQDPKQLLFAVYGLLLHEHKNAVVNFSLQRWEQYDKPVPSQEPIVVQYGVRRYTIQPLFSQGSNSPNNVHKYERFLHPDTVSVATCIAPVDFTQSPAIFFKPSPTDAKNIELIGHGTFLNADHSRILAKRAILTGHPFRFHKTVVTVRYMFFRPEDVEWFKSIPLFTKSGRSGFIKESLGTHGYFKATFDGKLSAQDVVAMSLYKRMWPMPSLPWNGM

Molecular target: scKrr1-FTpA (S. cerevisiae) (UniProt P25586)
Test: affinity purification with mass spectrometry; semi-quantitative mass spectrometry (1D nLC-ESI-MS-MS, MaxQuant iBAQ normalised to the bait) of FTpA eluates from depleted and non-depleted cells

| binding | Molecule |
| --- | --- |
| binds | B1 |
| binds | B2 |

Molecular target: T1, scEnp1-FTpA (S. cerevisiae)
Test: affinity purification with mass spectrometry; tandem affinity-purification of FTpA-tagged yeast baits (IgG Sepharose, TEV, Flag agarose); SDS-PAGE, Coomassie, bands identified by mass spectrometry; cells expressing or depleted of Dim2 (GAL::scDIM2, glucose 8 h) or with or without Krr1 degradation (auxin 90 min)

| binding | Molecule |
| --- | --- |
| binds | Dim1 (from UniProt P41819 1-318) |
| binds | B3 |
| binds | B4 |
| binds | B5 |
